Measurements reported in patent publication US20210128554A1, “ANTI-FLAVIVIRIDAE ACTIVITY OF ANTI-RETROVIRAL NON-NUCLEOSIDE (NNRTIS) AND NUCLEOSIDE REVERSE TRANSCRIPTASE INHIBITORS (NNRTIS)” (priority 2016, published 2021).
At least one compound was matched to its structure with a doubt left.

System: Zika virus
Assay: ZIKV copy numbers released into culture media of infected primary astrocytes (Real-time Q-RT-PCR)
Type: cell-based
Settings: primary human fetal and adult astrocytes, ZIKV 0.5 MOI, treated at 24, 48, 72 hrs post-infection, culture media at 96 hrs

Cc1cc(/C=C/C#N)cc(C)c1Nc1ccnc(Nc2ccc(C#N)cc2)n1 [Rilpivirine]
ZIKV copy numbers released by infected cells (Zika virus propagation): suppressed
ZIKV copy numbers released by infected cells (Zika virus propagation) (listed as TmC): dramatic reduction
